Values from PubChem BioAssay AID1508597 (Cure First, 2020).

- Screen: 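Genes whose silencing sensitises or protects ovarian cancer cells against rucaparib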 (primary screen)
- Cell system: human ovarian carcinoma lines grown from tumours: OCI-P5x (papillary serous) and OCI-C5x (clear cell)
- Knock-down reagent: siRNA pool against human genes, 1.25 pmol siRNA per well
- Timing: 72 h or 96 h, depending on the cell culture
- Challenge: rucaparib 20 µM (about IC30) or vehicle, present until read-out
- Rucaparib or vehicle: Vehicle
- Cell line: OCI-P5x (serous)
- Detection: 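ATP luminescence measured at 72 or 96 h according to the culture, then normalised and expressed as percent viability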
- Scale: viability, normalised: higher = more viable cells remaining
- Active means: 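Active when normalised viability falls below 80 percent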
- Meaning of the calls: active = viability under 80%; inactive = viability 80% or more
This is an unselected part of the about 2,100 reagents, under one of the conditions tested. 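Calls flag viability under 80% in either arm, not effects specific to rucaparib; the reference for percent is not stated.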 Entries without a mark were called inactive. A reagent listed more than once was tested more than once; the source does not tell the runs apart. The record does not give: the 100% reference.

| gene | technical replicate | viability, normalised (%) |
| --- | --- | --- |
| PKN1 | 1 | 51.6 (active) |
| PKN1 | 1 | 98.3 |
| PKN1 | 1 | 111 |
| PKN1 | 2 | 73.9 (active) |
| PKN1 | 2 | 33.1 (active) |
| PKN1 | 2 | 101 |
| PKN1 | 3 | 67.2 (active) |
| PKN1 | 3 | 101 |
| PKN1 | 3 | 93.6 |
| AIRE | 1 | 70 (active) |
| AIRE | 2 | 64.9 (active) |
| AIRE | 3 | 63.2 (active) |
| FXR2 | 1 | 74 (active) |
| FXR2 | 2 | 81.4 |
| FXR2 | 3 | 77.9 (active) |
| GDE1 | 1 | 59.4 (active) |
| GDE1 | 2 | 68.7 (active) |
| GDE1 | 3 | 62.3 (active) |
| SBDS | 1 | 79.1 (active) |
| SBDS | 2 | 64.9 (active) |
| SBDS | 3 | 70 (active) |
| SMARCE1 | 1 | 56.3 (active) |
| SMARCE1 | 2 | 58.8 (active) |
| SMARCE1 | 3 | 71.7 (active) |
| MLLT10 | 1 | 52.5 (active) |
| MLLT10 | 2 | 50.6 (active) |
| MLLT10 | 3 | 57.2 (active) |
| SMC1B | 1 | 49.5 (active) |
| SMC1B | 2 | 49.1 (active) |
| SMC1B | 3 | 62.1 (active) |
| SETD3 | 1 | 53.3 (active) |
| SETD3 | 2 | 54.6 (active) |
| SETD3 | 3 | 71.6 (active) |
| AKAP1 | 1 | 58.3 (active) |
| AKAP1 | 2 | 57.1 (active) |
| AKAP1 | 3 | 58.3 (active) |
| ATAT1 | 1 | 81.9 |
| ATAT1 | 2 | 77.7 (active) |
| ATAT1 | 3 | 73.7 (active) |
| XRCC1 | 1 | 82.5 |
| XRCC1 | 2 | 77.2 (active) |
| XRCC1 | 3 | 69.6 (active) |
| CLDN14 | 1 | 83.3 |
| CLDN14 | 2 | 57.2 (active) |
| CLDN14 | 3 | 52.7 (active) |
| NRXN2 | 1 | 58.5 (active) |
| NRXN2 | 2 | 53.2 (active) |
| NRXN2 | 3 | 124 |
| DCLK1 | 1 | 85.8 |
| DCLK1 | 2 | 75.3 (active) |
| DCLK1 | 3 | 87.8 |
| DGKH | 1 | 103 |
| DGKH | 2 | 104 |
| DGKH | 3 | 112 |
| CCK | 1 | 49.1 (active) |
| CCK | 2 | 76.1 (active) |
| CCK | 3 | 80.5 |
| PRKG1 | 1 | 54.4 (active) |
| PRKG1 | 2 | 86.6 |
| PRKG1 | 3 | 86.9 |
| LMTK3 | 1 | 88.6 |
| LMTK3 | 2 | 65.7 (active) |
| LMTK3 | 3 | 79.3 (active) |
| PHKA1 | 1 | 91.7 |
| PHKA1 | 2 | 93.3 |
| PHKA1 | 3 | 109 |
| MAST2 | 1 | 80.2 |
| MAST2 | 2 | 65.3 (active) |
| MAST2 | 3 | 64.4 (active) |
| JMJD4 | 1 | 59.9 (active) |
| JMJD4 | 2 | 80 (active) |
| JMJD4 | 3 | 131 |
| TNIK | 1 | 79.6 (active) |
| TNIK | 2 | 73.4 (active) |
| TNIK | 3 | 73.4 (active) |

Entries listed so far whose gene name starts with J or j:
| gene | technical replicate | viability, normalised (%) |
| --- | --- | --- |
| JMJD4 | 1 | 59.9 (active) |
| JMJD4 | 2 | 80 (active) |
| JMJD4 | 3 | 131 |
